At least one peptide structure holds a part that was inferred or is arguable (an end, a ring closure or a residue). Residues, ends and D or L forms follow the SMILES beside them.
What was measured:
[1] = target: T1, STAT1 (Homo sapiens, UniProt P42224); assay: BIAcore 2000 kinetics of STAT1 on immobilized peptide-biotin; type: binding; conditions: biotinylated peptide on streptavidin chip, 200 nM STAT1, excess soluble competing peptide (30 μM)
T1 sequence (P42224 1-750): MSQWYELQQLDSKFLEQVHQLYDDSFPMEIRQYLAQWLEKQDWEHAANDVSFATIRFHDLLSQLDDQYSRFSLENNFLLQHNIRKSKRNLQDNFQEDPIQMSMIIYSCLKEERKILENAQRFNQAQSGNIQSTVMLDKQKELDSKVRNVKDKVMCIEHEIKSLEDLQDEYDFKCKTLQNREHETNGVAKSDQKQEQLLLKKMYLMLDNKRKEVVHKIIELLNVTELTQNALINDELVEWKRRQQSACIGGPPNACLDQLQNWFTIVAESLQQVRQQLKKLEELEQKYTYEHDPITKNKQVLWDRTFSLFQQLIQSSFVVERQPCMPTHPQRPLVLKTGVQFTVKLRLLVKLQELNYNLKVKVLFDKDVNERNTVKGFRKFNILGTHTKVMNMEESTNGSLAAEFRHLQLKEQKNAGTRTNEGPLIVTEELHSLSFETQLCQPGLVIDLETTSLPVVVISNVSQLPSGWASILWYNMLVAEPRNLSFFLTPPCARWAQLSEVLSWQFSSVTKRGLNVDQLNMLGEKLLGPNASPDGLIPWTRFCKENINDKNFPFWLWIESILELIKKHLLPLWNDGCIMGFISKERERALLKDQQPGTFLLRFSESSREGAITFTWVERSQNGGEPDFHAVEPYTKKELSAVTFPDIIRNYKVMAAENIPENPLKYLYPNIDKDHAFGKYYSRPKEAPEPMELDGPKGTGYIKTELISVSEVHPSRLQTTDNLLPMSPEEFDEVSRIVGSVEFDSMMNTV

[2] = target: T1, STAT1; assay: SH2 domain protein binding assay, STAT1; parameters: key: +++ = high affinity binding

CC(C)C[C@H](NC(=O)[C@@H](NC(=O)[C@H](Cc1c[nH]cn1)NC(=O)[C@@H]1CCCN1C(=O)[C@H](CCCCN)NC(=O)[C@H](CC(=O)O)NC(=O)[C@H](Cc1ccc(OP(=O)(O)O)cc1)NC(=O)CN)C(C)C)C(=O)O [GY^PDKPHVL] (HELM PEPTIDE1{G.[O=C([C@H](Cc1ccc(OP(=O)(O)O)cc1)N[*:1])[*:2]].D.K.P.H.V.L}$$$$V2.0)
dissociation of the STAT1-peptide complex [1]: within a few seconds
binding to STAT1 [2]: +++
